Drawing on doi:10.1101/2025.07.15.664932, this text covers binding for five molecules.

These are yes or no findings as the source states them, for the method shown. Binding seen in cells or lysates may run through a third protein. Here binding means that the protein was enriched with, or labelled near, the bait; the list need not be complete. Sequences can lack the tags named with a protein.

The labels stand for the following.
T1: Gid1-HA (S. cerevisiae) (UniProt P53076)
T1 sequence: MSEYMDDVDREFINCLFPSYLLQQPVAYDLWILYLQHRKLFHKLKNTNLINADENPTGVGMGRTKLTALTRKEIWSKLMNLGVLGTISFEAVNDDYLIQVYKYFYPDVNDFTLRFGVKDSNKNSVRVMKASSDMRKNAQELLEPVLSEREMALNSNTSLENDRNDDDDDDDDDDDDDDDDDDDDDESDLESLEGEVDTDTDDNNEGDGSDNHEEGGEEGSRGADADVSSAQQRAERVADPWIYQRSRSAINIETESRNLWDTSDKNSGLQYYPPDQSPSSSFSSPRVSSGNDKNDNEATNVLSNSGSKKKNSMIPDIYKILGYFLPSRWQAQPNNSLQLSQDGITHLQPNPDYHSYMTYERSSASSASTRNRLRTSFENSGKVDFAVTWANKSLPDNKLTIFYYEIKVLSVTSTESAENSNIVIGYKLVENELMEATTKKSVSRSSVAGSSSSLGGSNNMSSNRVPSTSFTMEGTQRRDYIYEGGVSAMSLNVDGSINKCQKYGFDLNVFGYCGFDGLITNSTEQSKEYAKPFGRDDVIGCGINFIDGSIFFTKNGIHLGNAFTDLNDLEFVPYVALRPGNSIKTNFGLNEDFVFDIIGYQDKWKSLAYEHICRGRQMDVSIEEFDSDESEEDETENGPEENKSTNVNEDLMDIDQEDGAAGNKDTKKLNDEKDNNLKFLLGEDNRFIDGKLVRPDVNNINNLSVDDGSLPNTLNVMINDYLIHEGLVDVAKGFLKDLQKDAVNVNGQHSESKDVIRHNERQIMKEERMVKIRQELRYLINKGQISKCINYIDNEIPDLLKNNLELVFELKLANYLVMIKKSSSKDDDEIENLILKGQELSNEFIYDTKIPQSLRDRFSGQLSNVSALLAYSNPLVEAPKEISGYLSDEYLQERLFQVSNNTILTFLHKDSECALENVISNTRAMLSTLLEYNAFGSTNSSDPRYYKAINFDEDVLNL

B1: Gid2 (protein, UniProt Q12508 1-421)
chain: MSELLDSFETEFAKFYTDSNLEETNLQKCLDHTHEFKSQLKKLKAHLNKHIQESKPEVYNKLSDKEKQKFKRKRELIIEKLSKSQRQWDHSVKKQIKYVSQQSNRFNKSTLNKLKEFDIDSVYVNKLPKETMENVNEAIGYHILRYSIDNMPLGNKNEAFQYLKDVYGITNKESTEFIEMGQIVHDLKKGDTESCLKWCSNEMESLSSNHTALSSLKFDLYTLSAMQIVKHGNPVELYYQITQNAPLDCFRHREKELMQNVVPLLTKSLIGQPIEDIDSKVNKELKECTSLFIKEYCAAKHIFFDSPLFLIVLSGLISFQFFIKYKTIRELAHVDWTTKDELPFDVKLPDFLTHFHPIFICPVLKEETTTENPPYSLACHHIISKKALDRLSKNGTITFKCPYCPVNTSMSSTKKVRFVML
B2: Gid5 (protein, UniProt P40547 1-921)
chain: MTVAYSLENLKKISNSLVGDQLAKVDYFLAPKCQIFQCLLSIEQSDGVELKNAKLDLLYTLLHLEPQQRDIVGTYYFDIVSAIYKSMSLASSFTKNNSSTNYKYIKLLNLCAGVYPNCGFPDLQYLQNGFIQLVNHKFLRSKCKIDEVVTIIELLKLFLLVDEKNCSDFNKSKFMEEEREVTETSHYQDFKMAESLEHIIVKISSKYLDQISLKYIVRLKVSRPASPSSVKNDPFDNKGVDCTRAIPKKINISNMYDSSLLSLALLLYLRYHYMIPGDRKLRNDATFKMFVLGLLKSNDVNIRCVALKFLLQPYFTEDKKWEDTRTLEKILPYLVKSFNYDPLPWWFDPFDMLDSLIVLYNEITPMNNPVLTTLAHTNVIFCILSRFAQCLSLPQHNEATLKTTTKFIKICASFAASDEKYRLLLLNDTLLLNHLEYGLESHITLIQDFISLKDEIKETTTESHSMCLPPIYDHDFVAAWLLLLKSFSRSVSALRTTLKRNKIAQLLLQILSKTYTLTKECYFAGQDFMKPEIMIMGITLGSICNFVVEFSNLQSFMLRNGIIDIIEKMLTDPLFNSKKAWDDNEDERRIALQGIPVHEVKANSLWVLRHLMYNCQNEEKFQLLAKIPMNLILDFINDPCWAVQAQCFQLLRNLTCNSRKIVNILLEKFKDVEYKIDPQTGNKISIGSTYLFEFLAKKMRLLNPLDTQQKKAMEGILYIIVNLAAVNENKKQLVIEQDEILNIMSEILVETTTDSSSNGNDSNLKLACLWVLNNLLWNSSVSHYTQYAIENGLEPGHSPSDSENPQSTVTIGYNESVAGGYSRGKYYDEPDGDDSSSNANDDEDDDNDEGDDEGDEFVRTPAAKGSTSNVQVTRATVERCRKLVEVGLYDLVRKNITDESLSVREKARTLLYHMDLLLKVK
B3: Gid8 (protein, UniProt P40208 1-455)
chain: MTISTLSNETTKSGSCSGQGKNGGKDFTYGKKCFTKEEWKEQVAKYSAMGELYANKTIHYPLKIQPNSSGGSQDEGFATIQTTPIEPTLPRLLLNYFVSMAYEDSSIRMAKELGFIRNNKDIAVFNDLYKIKERFHIKHLIKLGRINEAMEEINSIFGLEVLEETFNATGSYTGRTDRQQQQQQQQFDIDGDLHFKLLLLNLIEMIRSHHQQENITKDSNDFILNLIQYSQNKLAIKASSSVKKMQELELAMTLLLFPLSDSADSGSIKLPKSLQNLYSISLRSKIADLVNEKLLKFIHPRIQFEISNNNSKFPDLLNSDKKIITQNFTVYNNNLVNGSNGTKITHISSDQPINEKMSSNEVTAAANSVWLNQRDGNVGTGSAATTFHNLENKNYWNQTSELLSSSNGKEKGLEFNNYYSSEFPYEPRLTQIMKLWCWCENQLHHNQIGVPRVEN
B4: Gid7 (protein, UniProt P25569 1-745)
chain: MSHTNKIAYVLNNDTEETASPSSVGCFDKKQLTKLLIHTLKELGYDSAANQLLLESGGYQNESNHIQTFFKLIKTGQFHLINWQIVCSLPLAHSSPLRSEWLQRLLIPTPTPATTSLFDHMLLQLQYLQQLMSSVNSSTCSDAEIATLRNYVEIMILVNRQIFLEFFHPVTNSASHKGPHTALPVLYLRKILKNFIEIWDSLLVSNDQFLNEENIFNPETTLRELSTYLTNPKLTAQLNLERDHLIDAISKYIDPNELVPKGRLLHLLKQAIKYQQSQDIFNIIDPDDDASFSSPPHRINLLQDNFSHDLTVTFQEWKTIQDTTDEIWFLTFSPNGKYLASATSESSRGYFITVYDVEQDFKIYKTCVSLSQSVLYLMFSPDSRYLVACPFSEDVTIYDMNATSLPDASATDSFLLYPSTRLSPMDSFKLDTTTYPDDTESSASSSSRPANANSNQSRVWCCDAFHTAERAGWMVVGSPDREAIVHSLTTKESLFSLKGRTCIALGHDENISGRKSIDPAKVLYKPTSSNGNWQYVEDDETFPRVHDVKISYDDKYVLLMTHQGVIDVYDFSGFPSKEELSKQTVDPKNFLIPRIARLDVGKNMTCISLPLNTTHQGFHRQQISESQHLVLVSLQDNELQMWDYKENILIQKYFGQKQQHFIIRSCFAYGNKLVMSGSEDGKIYIWDRIRGNLVSVLSGHSTVMSNSTKPMGKNCNVVASNPADKEMFASGGDDGKIKIWKISRN
B5: Gid9 (protein, UniProt P40492 1-516)
chain: MAEKSIFNEPDVDFHLKLNQQLFHIPYELLSKRIKHTQAVINKETKSLHEHTAALNQIFEHNDVEHDELALAKITEMIRKVDHIERFLNTQIKSYCQILNRIKKRLEFFHELKDIKSQNSGTSHNGNNEGTRTKLIQWYQSYTNILIGDYLTRNNPIKYNSETKDHWNSGVVFLKQSQLDDLIDYDVLLEANRISTSLLHERNLLPLISWINENKKTLTKKSSILEFQARLQEYIELLKVDNYTDAIVCFQRFLLPFVKSNFTDLKLASGLLIFIKYCNDQKPTSSTSSGFDTEEIKSQSLPMKKDRIFQHFFHKSLPRITSKPAVNTTDYDKSSLINLQSGDFERYLNLLDDQRWSVLNDLFLSDFYSMYGISQNDPLLIYLSLGISSLKTRDCLHPSDDENGNQETETATTAEKEVEDLQLFTLHSLKRKNCPVCSETFKPITQALPFAHHIQSQLFENPILLPNGNVYDSKKLKKLAKTLKKQNLISLNPGQIMDPVDMKIFCESDSIKMYPT

The target in this test is T1, Gid1-HA (S. cerevisiae). Kind of test: affinity purification with mass spectrometry.
For B1, the binding entry is on record as “binds”.

Consider B2, for which the binding result is listed as “binds”.

As for B3, the binding entry was “binds”.

On to B4, for which the binding entry was “binds”.

Take B5: the binding result is listed as “binds”.
